Reference: US10196668B2, “Reagents and methods for screening MPS I, II, IIIA, IIIB, IVA, VI, and VII” (University of Washington through its Center for …, priority 2013, dated 2019)

Assay: MSMS response (ion counts per pmole of analyte) of products and internal standards
Details: for MSMS response: MPS-I product compared to Fabry assay product

## CC(=O)N(CCCCCCNC(=O)c1ccccc1)CCC(=O)Nc1ccc(OC2OC(C(=O)O)C(O)C(O)C2O)cc1 (stereo not drawn) [Alternative MPS-I]
MPS-I product and internal standard, LC/MSMS
  MSMS response of IS and P: 500 ion counts/pmole
MPS-I, LC/MSMS
  sensitivity in MSMS detection of product, alternative versus original substrate: about 5 fold
MPS-I, flow injection-MSMS (not shown)
  MSMS response of product and internal standard, alternative versus original: about 5 fold

## CC(=O)N(CCCCCCNC(=O)c1ccccc1)CCC(=O)Nc1ccc(O)cc1 [MPS-I product]
  MSMS response: 500 ion counts per pmole

## CCCCC(=O)N(CCCCCCNC(=O)c1ccccc1)CCC(=O)Nc1ccc(OC2OC(C(=O)O)C(O)C(O)C2OS(=O)(=O)O)cc1 (stereo not drawn) [Alternative MPS-II]
MPS-II
  sensitivity in MSMS detection of product, alternative versus original substrate: about 10 fold
MPS-II product and internal standard, infused into tandem mass spectrometer
  MSMS response of IS and P: 86 ion counts/pmole

## CC(C)(C)OC(=O)N(CCCCCCNC(=O)c1ccccc1)CCC(=O)Nc1ccc(O)cc1 [Fabry product, reference compound]
  MSMS response: 211 ion counts per pmole

## CCCCC(=O)N(CCCCCNC(=O)c1ccccc1)CCC(=O)Nc1ccc(OC2OC(CO)C(OS(=O)(=O)O)C(O)C2NC(C)=O)cc1 [Alternative MPS-VI, Sodium (2R,3R,4R,5R,6S)-5-acetamido-6(4(3-(N (5-benzamidopentyl)-pentanamido)propanamido)phenoxy)-4-hydroxy-2-(hydroxymethyl)tetrahydro-2H-pyran-3-yl sulfate]
MPS-VI
  sensitivity in MSMS detection of product, alternative versus original substrate: about 10 fold
MPS-VI product and internal standard, infused into tandem mass spectrometer
  MSMS response of IS and P: 290 ion counts/pmole

Where a name gives a salt, the structure may show the parent alone.
